PubChem BioAssay AID1347423 (Functional Genomics Laboratory (NCATS/FGL), 2020)
The whole screen tested about 52,000 sequences, of which about 210 (0.4%) were called active.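 How the source made its calls: active means gene whose silencing raises cell survival under the drug, median off-target-corrected z-score across its silencing RNAs 2 or more; inactive means the rest.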 Some of the results follow.

Test: Resistance to Poly (ADP-Ribose) Polymerase inhibitor: Gene Identification via Genome-wide siRNA Screen
Conditions: mouse BRCA2 R2336H ES cells, olaparib, CellTiter-Glo viability; hits give high values
Summary of the method: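 Mouse BRCA2 R2336H ES cells were reverse-transfected with siRNA (20 nM final), treated at 48 h with 500 nM olaparib, and read by CellTiter-Glo after 72 h. Scores: MAD-based z per siRNA, median per gene, seed off-target correction.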

Row | Sequence | z-score
1 | GGGCCUCUAUCAACACUGUTT against Tomm40l | inactive: 1.09
2 | GGCCUACGAACAGGUCAUGTT against Foxa2 | inactive: -1.07
3 | GGGAUCAUUGCUGUCCUCUTT against Adora2b | inactive: 1.9
4 | GGGCUUUUACCUGAAUCACTT against Egfl5 | inactive: 0.684
5 | GGAAAUCUUUGAGAACUAUTT against Tpr | inactive: -2.51
6 | GGAUCAGUUCAACGGACAGTT against Oas1d | inactive: -0.486
7 | GGUGAGAAGGUGCUAGUGUTT against Ugt1a5 | inactive: 0.72
8 | CCACAUGCCAAAAUAAUACTT against Oxr1 | inactive: 0.164
9 | CCAGUGGUAUGUGUGCAACTT against 0610012D09Rik | inactive: 3.12
10 | AGAUUUUGGGAAUAUAGUGTT against Klra16 | inactive: 0.187
11 | GGCUGAACUCAAAAAGACGTT against Hand1 | inactive: 2.07
12 | CAGUCGAAUUUCAGUCACATT against Olfr417 | inactive: -0.762
13 | CGAACUGGCUGAGAUCAUCTT against Mrps17 | inactive: -0.975
14 | GGAACUUUUCCUGGCCUCGTT against 9530080O11Rik | inactive: -0.867
15 | GGAAACUCCGUCCCAAUUGTT against Rnf137 | inactive: 1.96
16 | GGAAGUGAGAGUUAAGGCCTT against Rhov | inactive: 0.392
17 | CCCUUUUUUUUCUAGCACCTT against 9430022F06Rik | inactive: 2.36
18 | GCCAGAUCAUUGUAUCAAUTT against A730024F05Rik | inactive: 0.767
19 | GGAUGAUCCAGACUAACUUTT against Abcb6 | inactive: 2.85
20 | GGAGGAGAUGAUGAAUUUUTT against Etf1 | inactive: -2.49
21 | GGGAAGAAGAUGGAAUUUATT against Smoc1 | inactive: 0.217
22 | GCAACCUGUUAACAGAAGUTT against 2410015B03Rik | inactive: 0.966
23 | GCCCUGAGAAAAAGCUCAUTT against V1rh18 | inactive: 0.756
24 | GGCACACUUAUCAAAUAAATT against Rrm1 | inactive: -2.35
25 | GGCCUAAAUAAGGAUGUGATT against 1110015E22Rik | inactive: -0.445
26 | UAGAAUCCAUGCAAGGGCGTT against 4931440B09Rik | inactive: 1.06

Row | Sequence | z-score
27 | GCACCAGUCGAAUCCUCAATT against AI428855 | inactive: -1.34
28 | GGUAGCUAAAGAAAACCAGTT against Rangnrf | inactive: -1.18
29 | GCUAUCACAAUAAAGGAUATT against Syt14 | inactive: -0.278
30 | CGUGCUUCGAUUGUAGUUCTT against C030039L03Rik | inactive: -1.02
31 | GGCUAUUUGUAUGCUGGAATT against C030002J06Rik | inactive: 1.27
32 | GCACAUCACAAGAAUUACUTT against Lhfp | inactive: -1.62
33 | CCAAGUGACUACCAUGUCATT against Tesp2 | inactive: -0.0666
34 | GGAAUUUAGAAGGAUUAGGTT against Ptp4a1 | inactive: 0.282
35 | GGAGCAGAUUCUUCAAUAUTT against Atp11a | inactive: -0.714
36 | GGAAGCGUAUUUUGGUGAUTT against Cox10 | inactive: 1.17
37 | CCUGUAUAGAGGUGGGAAGTT against Tk2 | inactive: 0.493
38 | GGCUAAACCAACCUCGUGCTT against D10Ertd214e | inactive: 1.15
39 | GCCAAGGGUUUGAAAGCCATT against Tpm1 | inactive: -0.934
40 | CCUGAGGACCACUACUUUUTT against Arp3b | inactive: -2.39
41 | GGGCAGCUGGAUAGCUAAATT against E230026N22Rik | inactive: 0.563
42 | GCUAGAGAAGCUAGAAAAGTT against 2700094L05Rik | inactive: -0.952
43 | GGCCAAAUGAAGUCAAAAGTT against Srrp | inactive: 2.17
44 | CGAGGGUCUGAAAAAUUACTT against AU044919 | inactive: 1.54
45 | GGCGUGUAUCUAUACACACTT against Glp1r | inactive: -0.0599
46 | GGAUUAGAGAAAUAGGGCUTT against 9030421J09Rik | inactive: -0.273
47 | GGACAGAGCAGACAUUCAUTT against B130003F20Rik | inactive: -0.977
48 | GCUGUCUAUUUCCUAUACUTT against Bcl7a | inactive: -0.0581
49 | GCAGUGCAUAACAUUGCCATT against Marcks | inactive: -0.825
50 | CGCAAUUCAGGUACCAAAUTT against Ndufv1 | inactive: -1.44
51 | GGACAAAUGAACAUGCUGATT against Edn2 | inactive: -0.22
52 | GGAGAACAACCUUCUCAUATT against Cog7 | inactive: 0.447

Row | Sequence | z-score
53 | GGAAGAUAAACCUAUCAUCTT against Phlda3 | inactive: 0.961
54 | GGACUUAUGGUUUUUCCCATT against Atp1b3 | inactive: 1.19
55 | GGCAAUGUGUCUUUGAUCATT against Lamc2 | inactive: -1.02
56 | GGCAUUUAAAACUCAUUGUTT against G6pdx | inactive: -1.43
57 | GGACCAUCACUUCCAGCUATT against Rab1b | inactive: -2.29
58 | GCUGUUUCGGAUUUGGAGATT against 2610205H19Rik | inactive: -1.44
59 | CCGUCGUACUUGUUCUCCUTT against Otog | inactive: -0.104
60 | GGAUCACGAAUGAAUCCGATT against Dcir2 | inactive: -0.271
61 | GGCUUGGCUUUCAUGUUACTT against B930052A04Rik | inactive: -0.138
62 | GGAAAUUGAAGCAAAGAAGTT against A430065P19Rik | inactive: 0.0543
63 | CGAUUACUACAUUACAUCATT against Efnb1 | inactive: 0.394
64 | GCACUCAUACCUUAAGCUUTT against Ocilrp1 | inactive: -0.191
65 | GCUAGUACUAUUACCUGCUTT against E130303B06Rik | inactive: 1.15
66 | GGACAGAUGAUGAAGUUGUTT against Tra1 | inactive: -0.555
67 | GGGCAGCACUGUGGUUAAUTT against Sh3md2 | inactive: -2.3
68 | GGGACACUCCACCUUUCAUTT against Notch4 | inactive: 0.596
69 | GCACCGGUGAAAAAGAAGATT against Pinx1 | inactive: -0.0213
70 | GGAAUGUUAACAAAGAGCATT against Sgcb | inactive: 0.478
71 | GGUUUUCCGGACAGACUUGTT against Phf15 | inactive: 1.46
72 | GGUGUUUACAACCUCACAATT against Pecr | inactive: -0.519
73 | GGACUCAAGUGCAAGACACTT against D330017J20Rik | inactive: -0.806
74 | GCCUGUAUGGAUGGAUUCCTT against 4631427C17Rik | inactive: 0.927
75 | GCCAUUCAAUGAUACAAUGTT against Adamts19 | inactive: 1.07
76 | GGUGUCAAGUGGAUUAUCCTT against Slc12a8 | inactive: -0.571
77 | GGGUCUUGUGAUCUCAAUUTT against Cyp2a5 | inactive: -0.769
78 | GGCACCUUCAAAUUACAUCTT against Asl | inactive: -0.552

Part of the list above, as labelled records:
GGAUCACGAAUGAAUCCGATT against Dcir2
  z-score: inactive: -0.271
GGCUUGGCUUUCAUGUUACTT against B930052A04Rik
  z-score: inactive: -0.138
GGAAAUUGAAGCAAAGAAGTT against A430065P19Rik
  z-score: inactive: 0.0543
CGAUUACUACAUUACAUCATT against Efnb1
  z-score: inactive: 0.394

Later entries:

Row | Sequence | z-score
79 | GGAUGACUGUCUUCCAUCGTT against Hrg | inactive: -0.938
80 | GGAGGUAUUUCAAAUUGCUTT against 2900057D21Rik | inactive: -1.69
81 | GCCAUAGCGAUCACUACUGTT against Sfpi1 | inactive: 2.33
82 | GCAUCUCGUGUGACUUAAGTT against Ak1 | inactive: -0.383
83 | CCUCCUCCAAUUAAAGACATT against Crsp9 | inactive: 0.699
84 | CGUUCUUGAGAGUCGAUCATT against Smoc2 | inactive: -0.236
85 | GGGUGGACUGAAUGCUGAUTT against Qtrt1 | inactive: -1.25
86 | GGCAAGACUGAGCAAGAUUTT against Catsper3 | inactive: 1.01
87 | CCUAACAAGGGAAUAAAUGTT against Icosl | inactive: 0.893
88 | GGCAGACAAGUUCACAGUGTT against Igsf6 | inactive: 0.557
89 | GCCACAAGAUACCAUCAGATT against Rex3 | inactive: 2.22
90 | GGGAGUGAUGGUACCCUAUTT against Myf6 | inactive: -1.17
91 | GGAAUUCAACUCAGAUAAGTT against C3 | inactive: -0.52
92 | GGUUAUGAUUGGUUUGAAGTT against 1500009M05Rik | inactive: 1.1
93 | GGAAAUCUCUUCAUGGAUATT against Kng1 | inactive: -0.296
94 | GGACUUCAGCAAUGUCUUGTT against Rab17 | inactive: -0.933
95 | GGAGCUAAGGUGGUACGAGTT against 2210008I11Rik | inactive: 0.461
96 | AUAAGAUGUUGCUCGGAACTT against Olfr1193 | inactive: -0.282
97 | GCAUAAAGCACCCGGAGAGTT against Rog | inactive: 0.0889
98 | GGAUCAAGAAAAGAUGAAATT against Galnt1 | inactive: 1.41
99 | GGCUCCCUUUUUUGUACUATT against Olfr1056 | inactive: 1.28
100 | GGCAAGAAAAAUCAGAUUGTT against Cyld | inactive: 0.603
101 | GGUUUUGGGCAAAAUUGAGTT against Edf1 | inactive: 0.714
102 | GGAUUACUGUGCUUCUAAUTT against Olfr788 | inactive: -0.505
103 | GGUGGCAGUAUGAAUUCGATT against Serpina12 | inactive: -0.379
104 | GGAAUGGAAUAGCAGAGCUTT against 2610204K14Rik | inactive: 1.91
